Source: PubChem BioAssay AID485298 (National Center for Advancing Translational Sciences (NCATS), 2010)
Among all 320,000 compounds or so, about 740 (0.23%) were called active. The inconclusive results got no clear call from the source; some entries with a clear call stand among them for comparison. Calls come from the whole dose curve; as a rule, active = well fitted activation curve with a large enough effect; inconclusive = small, poorly fitted or top-dose-only effect; inactive = no such curve, though single readings can be large or run the other way. Potencies beside an inconclusive call are fits to weak or partial responses and may not hold up.
Potency is the fitted concentration of half-maximal effect.

Test: qHTS Assay for Small Molecule Inhibitors of Mitochondrial Division or Activators of Mitochondrial Fusion; note: nearly all actives have a fitted effect of over 45% in size
Conditions: S. cerevisiae fusion-defective mutant growth rescue, CellTiterGlo 48 h; series mostly up to 46.1 µM
Procedure, shortened: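 Luminescent cell viability in 1536-well qHTS format served as the measure of rescued growth in ts fusion-mutant S. cerevisiae cultured on non-fermentable YPEG for 48 hours at 37C.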
With Cc1ccc2nc(Nc3ccc(Cl)cc3)c3nncn3c2c1 the Potency was inconclusive: 7.08 µM [activator, full curve]. For O=C(Nc1ccccc1Sc1ccccc1)c1ccccc1, the Potency was “inactive”. In the case of CCOC(=O)c1[nH]c(C)c(C(=O)OCC(=O)NC2CCS(=O)(=O)C2)c1C (stereo not given), the Potency is reported as “inactive”. For COc1cc(/C=C(\C#N)C(N)=O)ccc1OCc1c(C)no[n+]1[O-], the Potency was “inactive”. In the case of COc1ccc(Br)cc1CN(C)CC(=O)Nc1c(Cl)ccc(C)c1Cl, the Potency is reported as inconclusive: 8.91 µM [activator, partial curve]. With Cc1cccc(Nc2nnc(-c3ccc(N4CCOCC4)c([N+](=O)[O-])c3)c3ccccc23)c1 the Potency was inconclusive: 35.5 µM [activator, single point]. For Cn1nc(-c2ccccc2)c(C(=O)Nc2ccc(C(F)(F)F)cc2)c1Cl, the Potency was “inactive”. In the case of O=C(NCc1ccccn1)c1cc(-c2ccc(Cl)cc2)nc2ccccc12, the Potency is reported as inconclusive: 12.6 µM [activator, partial curve]. In the case of CC(C)(C)c1nc(SCC(=O)NNC(=O)c2ccccc2)c2ccccc2n1, the Potency is reported as inconclusive: 10 µM [activator, partial curve]. With O=C(N/N=C/c1ccc(-c2ccccc2[N+](=O)[O-])o1)c1cncc(Br)c1 the Potency was “inactive”. With COc1ccc(C2=NN(C(=O)c3cccs3)C(c3ccc(OC)cc3)C2)cc1 (stereo not given) the Potency was active: 11.2 µM. With Cc1cccc(C)c1NC(=O)/C(=C/c1ccco1)c1ccccc1 the Potency was “inactive”. With COc1ccccc1CNC(=O)c1nn(C)c2c1CS(=O)(=O)c1ccccc1-2 the Potency was inconclusive: 35.5 µM [activator, partial curve]. With COc1cc(C(=O)N2CCN(C(=O)c3cccc4ccccc34)CC2)cc(OC)c1OC the Potency was “inactive”. With Cc1ccccc1OCC(O)CN(Cc1ccccc1O)C1CCCCC1 (stereo not given) the Potency was “inactive”. With COC(=O)c1cc(C)sc1NC(=O)C1C2C=CC(CC2)C1C(=O)O (stereo not given) the Potency was inconclusive: 31.6 µM [activator, single point]. With O=c1[nH]c2cc3c(cc2cc1CN(Cc1ccco1)C(=S)NCC1CCCO1)OCCO3 (stereo not given) the Potency was “inactive”. With COCC(=O)Nc1nc2ccc(C)cc2s1 the Potency was “inactive”. For O=C(c1cccs1)N1N=C(c2ccccc2)CC1c1ccccc1 (stereo not given), the Potency was inconclusive: 10 µM [activator, partial curve]. In the case of Cc1noc(C)c1COc1ccc(CC(=O)NCCc2ccccc2)cc1, the Potency is reported as inconclusive: 22.4 µM [activator, single point]. With O=C(Nc1cccc2c1N(C(=O)c1ccco1)CCC2)c1ccco1 the Potency was inconclusive: 8.91 µM [activator, partial curve]. For O=S(=O)(c1ccccc1)N1CCN(c2nnnn2-c2ccccc2)CC1, the Potency was “inactive”. With O=C(NNC(=S)Nc1ccc(Cl)cc1Cl)c1ccc(N2CCOCC2)c([N+](=O)[O-])c1 the Potency was inconclusive: 35.5 µM [activator, single point]. For O=c1[nH]c2cc(Cl)ccc2c(O)c1-c1ccc(Oc2ccccc2)cc1, the Potency was inconclusive: 0.206 µM [activator, full curve, poor fit]. For CC(C)CN(C(=O)COC(=O)c1ccccc1NCc1ccco1)c1c(N)n(Cc2ccccc2)c(=O)[nH]c1=O, the Potency was “inactive”. In the case of O=C(NCc1cccc(Br)c1)C1CC(c2ccccc2C(F)(F)F)=NO1 (stereo not given), the Potency is reported as inconclusive: 31.6 µM [activator, single point]. With Cc1ccc(S(=O)(=O)NN2C(=O)/C(=C/c3cccc(F)c3)SC2=S)cc1 the Potency was inconclusive: 6.31 µM [activator, partial curve]. In the case of C=CCOc1ccc(C(=O)/C=C2/C(=O)Nc3ccccc32)cc1, the Potency is reported as inconclusive: 1.58 µM [activator, partial curve]. With CC(Nc1cc(N2CCN(C(=O)C(C)(C)C)CC2)ccc1[N+](=O)[O-])c1ccccc1 (stereo not given) the Potency was “inactive”. For CC(=O)Nc1ccc(C2=NN(c3ccccc3)C(c3ccccc3)C2)cc1 (stereo not given), the Potency was inconclusive: 35.5 µM [activator, single point]. With COc1cccc(NS(=O)(=O)c2c(C)cc(C)cc2C)c1 the Potency was inconclusive: 22.4 µM [activator, partial curve]. In the case of Cc1cnc(=O)[nH]c1SCc1cccc(C(F)(F)F)c1, the Potency is reported as inconclusive: 20 µM [activator, partial curve]. With Cc1c(Cl)cccc1NC(=S)N(Cc1cccnc1)Cc1ccccc1Cl the Potency was “inactive”. With Cc1ccc(Cc2cc(-c3ccc(C)cc3)n[nH]c2=O)cc1 the Potency was inconclusive: 22.4 µM [activator, single point]. In the case of CC(=O)Nc1ccc(O)c(-c2nc3ccccc3s2)c1, the Potency is reported as inconclusive: 20 µM [activator, partial curve]. With CCOC(=O)c1cc2c(ccn2-c2ccc(F)cc2)n1CC(=O)N(CC)CC the Potency was inconclusive: 14.1 µM [activator, partial curve]. With O=C1C2C(c3ccccc3)=NN(c3ccccc3)C2C(=O)N1c1ccccc1 (stereo not given) the Potency was inconclusive: 12.6 µM [activator, partial curve]. With Cc1cc(C)cc(NC(=O)C(OC(=O)c2ccc(O)cc2)c2ccccc2)c1 (stereo not given) the Potency was inconclusive: 22.4 µM [activator, single point]. With O=C(CCC(=O)N1CCN(c2ccc(Cl)c(Cl)c2)CC1)c1ccccc1 the Potency was inconclusive: 11.2 µM [activator, partial curve]. In the case of COc1ccc(Nc2nc(-c3cccs3)nc3ccccc23)c(OC)c1, the Potency is reported as inconclusive: 17.8 µM [activator, single point]. For Cc1ccc(S(=O)(=O)N(CC(=O)N=Nc2c(O)[nH]c3ccccc23)c2ccc(C)c(C)c2)cc1, the Potency was inconclusive: 22.4 µM [activator, single point]. In the case of CCOc1ccccc1NC(=O)c1nnn(-c2ccc3c(c2)OCCO3)c1N, the Potency is reported as inconclusive: 12.6 µM [activator, single point]. With CCOC(=O)CSCC(=O)N1N=C(c2cccs2)CC1c1ccc(F)cc1 (stereo not given) the Potency was “inactive”. For S=C(Nc1ccc(Cl)cc1)NC1CC2CCC(C1)N2Cc1ccccc1 (stereo not given), the Potency was inconclusive: 12.6 µM [activator, partial curve]. For Cc1ccc(Cl)cc1N1CCN(C(=O)c2noc(C)c2[N+](=O)[O-])CC1, the Potency was inconclusive: 35.5 µM [activator, partial curve].
